Reference: PMC4041461
The exact form of at least one protein or probe is not confirmed. For some assays here: Weaker means in comparison with the reference protein, sequence or condition of that experiment. For some assays here: Where cells or extracts were used, other partners may take part. For some assays here: No signal at the amounts used counts as a negative. For some assays here: At least one verdict was read from the data and is not stated in words by the source. For some assays here: Protein sequences can lack the tags named with them.

What was measured:
EFHD2 (Homo sapiens) = EFHD2 (Homo sapiens) (UniProt Q96C19); test: SPR; details: 100 nM RNA; 3' biotin; SPR: 25 °C, 1:10 mixture of binding buffer (10 mM Tris-HCl pH 7.5, 150 mM KCl) and HBS-EP (10 mM HEPES pH 7.4, 150 mM NaCl, 3 mM EDTA, 0.005% P20), protein immobilized; recombinant protein; protein details: N-terminal His-tag (pET28a); label: biotin
SRSF1 (Homo sapiens) = SRSF1 (Homo sapiens) (UniProt Q07955); test: SPR; details: 100 nM RNA; 3' biotin; SPR: 25 °C, 1:10 mixture of binding buffer (10 mM Tris-HCl pH 7.5, 150 mM KCl) and HBS-EP (10 mM HEPES pH 7.4, 150 mM NaCl, 3 mM EDTA, 0.005% P20), protein immobilized; recombinant protein; protein details: N-terminal His-tag (pET28a); label: biotin
RPL27a (Homo sapiens) = RPL27a (Homo sapiens) (UniProt P46776); test: pull-down; details: 3' biotin; pull-down: RNA on streptavidin beads blocked in 10 mM Tris-HCl pH 7.5, 100 mM KCl, 0.1 mM EDTA, 1 mM DTT, 0.01% Triton X-100, BSA, tRNA; extract 1 h at 30 °C; protein in an extract; label: biotin
[1] = target: Y-box-binding protein 3 (Homo sapiens) (UniProt P16989); test: pull-down; details: 3' biotin; pull-down: RNA on streptavidin beads blocked in 10 mM Tris-HCl pH 7.5, 100 mM KCl, 0.1 mM EDTA, 1 mM DTT, 0.01% Triton X-100, BSA, tRNA; extract 1 h at 30 °C; protein in an extract; label: biotin
RPL12 (Homo sapiens) = RPL12 (Homo sapiens) (UniProt P30050); test: pull-down; details: 3' biotin; pull-down: RNA on streptavidin beads blocked in 10 mM Tris-HCl pH 7.5, 100 mM KCl, 0.1 mM EDTA, 1 mM DTT, 0.01% Triton X-100, BSA, tRNA; extract 1 h at 30 °C; protein in an extract; label: biotin
[2] = target: EFHD2 (native) (Homo sapiens) (UniProt Q96C19); test: pull-down; details: 3' biotin; pull-down: RNA on streptavidin beads blocked in 10 mM Tris-HCl pH 7.5, 100 mM KCl, 0.1 mM EDTA, 1 mM DTT, 0.01% Triton X-100, BSA, tRNA; extract 1 h at 30 °C; protein in an extract; label: biotin
[3] = target: U2AF65 (native) (Homo sapiens) (UniProt P26368); test: pull-down; details: 3' biotin; pull-down: RNA on streptavidin beads blocked in 10 mM Tris-HCl pH 7.5, 100 mM KCl, 0.1 mM EDTA, 1 mM DTT, 0.01% Triton X-100, BSA, tRNA; extract 1 h at 30 °C; protein in an extract; label: biotin
hnRNPF (Homo sapiens) = target: T1, hnRNPF (Homo sapiens) (UniProt P52597); test: pull-down; details: 3' biotin; pull-down: RNA on streptavidin beads blocked in 10 mM Tris-HCl pH 7.5, 100 mM KCl, 0.1 mM EDTA, 1 mM DTT, 0.01% Triton X-100, BSA, tRNA; extract 1 h at 30 °C; protein in an extract; label: biotin
T1 sequence (looked up, limits assumed): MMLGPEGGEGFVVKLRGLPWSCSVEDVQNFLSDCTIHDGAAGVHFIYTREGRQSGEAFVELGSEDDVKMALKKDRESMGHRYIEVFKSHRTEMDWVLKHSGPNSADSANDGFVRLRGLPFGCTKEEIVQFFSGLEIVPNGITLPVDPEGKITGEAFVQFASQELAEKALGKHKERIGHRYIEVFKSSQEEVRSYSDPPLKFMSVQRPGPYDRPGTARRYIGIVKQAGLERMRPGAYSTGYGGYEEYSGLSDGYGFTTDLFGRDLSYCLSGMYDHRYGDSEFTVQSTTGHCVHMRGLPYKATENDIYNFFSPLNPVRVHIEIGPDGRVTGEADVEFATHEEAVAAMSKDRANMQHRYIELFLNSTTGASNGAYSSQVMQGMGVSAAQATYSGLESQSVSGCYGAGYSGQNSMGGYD

RPL19 (Homo sapiens) = RPL19 (Homo sapiens) (UniProt P84098); test: pull-down; details: 3' biotin; pull-down: RNA on streptavidin beads blocked in 10 mM Tris-HCl pH 7.5, 100 mM KCl, 0.1 mM EDTA, 1 mM DTT, 0.01% Triton X-100, BSA, tRNA; extract 1 h at 30 °C; protein in an extract; label: biotin
RPL6 (Homo sapiens) = RPL6 (Homo sapiens) (UniProt Q02878); test: pull-down; details: 3' biotin; pull-down: RNA on streptavidin beads blocked in 10 mM Tris-HCl pH 7.5, 100 mM KCl, 0.1 mM EDTA, 1 mM DTT, 0.01% Triton X-100, BSA, tRNA; extract 1 h at 30 °C; protein in an extract; label: biotin
RBM14 (Homo sapiens) = target: T2, RBM14 (Homo sapiens) (UniProt Q96PK6); test: pull-down; details: 3' biotin; pull-down: RNA on streptavidin beads blocked in 10 mM Tris-HCl pH 7.5, 100 mM KCl, 0.1 mM EDTA, 1 mM DTT, 0.01% Triton X-100, BSA, tRNA; extract 1 h at 30 °C; protein in an extract; label: biotin
T2 sequence (looked up, limits assumed): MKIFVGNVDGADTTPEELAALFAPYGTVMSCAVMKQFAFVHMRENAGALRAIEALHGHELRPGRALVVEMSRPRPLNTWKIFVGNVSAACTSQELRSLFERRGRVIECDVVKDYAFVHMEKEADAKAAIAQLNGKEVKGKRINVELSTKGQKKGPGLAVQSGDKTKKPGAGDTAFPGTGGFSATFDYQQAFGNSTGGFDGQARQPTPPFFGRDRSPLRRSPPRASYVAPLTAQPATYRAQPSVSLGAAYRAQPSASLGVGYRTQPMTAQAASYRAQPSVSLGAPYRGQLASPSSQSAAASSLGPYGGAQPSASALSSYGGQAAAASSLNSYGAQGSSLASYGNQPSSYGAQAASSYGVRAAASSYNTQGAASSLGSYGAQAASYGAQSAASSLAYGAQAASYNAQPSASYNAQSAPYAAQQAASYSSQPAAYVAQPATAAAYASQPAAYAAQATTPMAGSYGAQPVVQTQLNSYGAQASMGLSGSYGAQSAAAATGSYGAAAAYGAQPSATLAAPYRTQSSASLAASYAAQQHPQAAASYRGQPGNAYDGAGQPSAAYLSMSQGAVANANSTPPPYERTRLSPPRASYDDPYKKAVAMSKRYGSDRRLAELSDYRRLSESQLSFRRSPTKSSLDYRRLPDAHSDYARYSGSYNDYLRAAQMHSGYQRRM

RPS6 (Homo sapiens) = RPS6 (Homo sapiens) (UniProt P62753); test: pull-down; details: 3' biotin; pull-down: RNA on streptavidin beads blocked in 10 mM Tris-HCl pH 7.5, 100 mM KCl, 0.1 mM EDTA, 1 mM DTT, 0.01% Triton X-100, BSA, tRNA; extract 1 h at 30 °C; protein in an extract; label: biotin
hnRNPA3 (Homo sapiens) = hnRNPA3 (Homo sapiens) (UniProt P51991); test: pull-down; details: 3' biotin; pull-down: RNA on streptavidin beads blocked in 10 mM Tris-HCl pH 7.5, 100 mM KCl, 0.1 mM EDTA, 1 mM DTT, 0.01% Triton X-100, BSA, tRNA; extract 1 h at 30 °C; protein in an extract; label: biotin
[4] = target: Tropomyosin alpha 4 (Homo sapiens) (UniProt P67936); test: pull-down; details: 3' biotin; pull-down: RNA on streptavidin beads blocked in 10 mM Tris-HCl pH 7.5, 100 mM KCl, 0.1 mM EDTA, 1 mM DTT, 0.01% Triton X-100, BSA, tRNA; extract 1 h at 30 °C; protein in an extract; label: biotin
RPS9 (Homo sapiens) = RPS9 (Homo sapiens) (UniProt P46781); test: pull-down; details: 3' biotin; pull-down: RNA on streptavidin beads blocked in 10 mM Tris-HCl pH 7.5, 100 mM KCl, 0.1 mM EDTA, 1 mM DTT, 0.01% Triton X-100, BSA, tRNA; extract 1 h at 30 °C; protein in an extract; label: biotin
G3BP2 (Homo sapiens) = G3BP2 (Homo sapiens) (UniProt Q9UN86); test: pull-down; details: 3' biotin; pull-down: RNA on streptavidin beads blocked in 10 mM Tris-HCl pH 7.5, 100 mM KCl, 0.1 mM EDTA, 1 mM DTT, 0.01% Triton X-100, BSA, tRNA; extract 1 h at 30 °C; protein in an extract; label: biotin
hnRNPH (Homo sapiens) = target: T3, hnRNPH (Homo sapiens) (UniProt P31943); test: pull-down; details: 3' biotin; pull-down: RNA on streptavidin beads blocked in 10 mM Tris-HCl pH 7.5, 100 mM KCl, 0.1 mM EDTA, 1 mM DTT, 0.01% Triton X-100, BSA, tRNA; extract 1 h at 30 °C; protein in an extract; label: biotin
T3 sequence (looked up, limits assumed): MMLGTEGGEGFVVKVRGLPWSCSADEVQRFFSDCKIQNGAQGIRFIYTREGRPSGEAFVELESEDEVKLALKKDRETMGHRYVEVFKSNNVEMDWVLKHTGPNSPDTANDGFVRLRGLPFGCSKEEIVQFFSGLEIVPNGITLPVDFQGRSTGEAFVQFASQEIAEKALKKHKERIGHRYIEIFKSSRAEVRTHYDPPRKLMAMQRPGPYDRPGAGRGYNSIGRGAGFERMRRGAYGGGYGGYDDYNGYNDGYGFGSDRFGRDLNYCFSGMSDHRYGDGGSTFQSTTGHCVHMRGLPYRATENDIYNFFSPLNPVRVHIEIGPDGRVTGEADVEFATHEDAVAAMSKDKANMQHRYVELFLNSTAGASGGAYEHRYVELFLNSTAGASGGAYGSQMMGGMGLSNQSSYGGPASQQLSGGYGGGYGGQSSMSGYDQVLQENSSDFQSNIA

[5] = target: SRSF1 (native) (Homo sapiens) (UniProt Q07955); test: pull-down; details: 3' biotin; pull-down: RNA on streptavidin beads blocked in 10 mM Tris-HCl pH 7.5, 100 mM KCl, 0.1 mM EDTA, 1 mM DTT, 0.01% Triton X-100, BSA, tRNA; extract 1 h at 30 °C; protein in an extract; label: biotin
RPS2 (Homo sapiens) = RPS2 (Homo sapiens) (UniProt P15880); test: pull-down; details: 3' biotin; pull-down: RNA on streptavidin beads blocked in 10 mM Tris-HCl pH 7.5, 100 mM KCl, 0.1 mM EDTA, 1 mM DTT, 0.01% Triton X-100, BSA, tRNA; extract 1 h at 30 °C; protein in an extract; label: biotin
Actin (Homo sapiens) = test: pull-down; details: 3' biotin; pull-down: RNA on streptavidin beads blocked in 10 mM Tris-HCl pH 7.5, 100 mM KCl, 0.1 mM EDTA, 1 mM DTT, 0.01% Triton X-100, BSA, tRNA; extract 1 h at 30 °C; protein in an extract; label: biotin
RPL7 (Homo sapiens) = RPL7 (Homo sapiens) (UniProt P18124); test: pull-down; details: 3' biotin; pull-down: RNA on streptavidin beads blocked in 10 mM Tris-HCl pH 7.5, 100 mM KCl, 0.1 mM EDTA, 1 mM DTT, 0.01% Triton X-100, BSA, tRNA; extract 1 h at 30 °C; protein in an extract; label: biotin
SRSF9 (Homo sapiens) = SRSF9 (Homo sapiens) (UniProt Q13242); test: pull-down; details: 3' biotin; pull-down: RNA on streptavidin beads blocked in 10 mM Tris-HCl pH 7.5, 100 mM KCl, 0.1 mM EDTA, 1 mM DTT, 0.01% Triton X-100, BSA, tRNA; extract 1 h at 30 °C; protein in an extract; label: biotin
RPL14 (Homo sapiens) = RPL14 (Homo sapiens) (UniProt P50914); test: pull-down; details: 3' biotin; pull-down: RNA on streptavidin beads blocked in 10 mM Tris-HCl pH 7.5, 100 mM KCl, 0.1 mM EDTA, 1 mM DTT, 0.01% Triton X-100, BSA, tRNA; extract 1 h at 30 °C; protein in an extract; label: biotin
RPL10 (Homo sapiens) = RPL10 (Homo sapiens) (UniProt P27635); test: pull-down; details: 3' biotin; pull-down: RNA on streptavidin beads blocked in 10 mM Tris-HCl pH 7.5, 100 mM KCl, 0.1 mM EDTA, 1 mM DTT, 0.01% Triton X-100, BSA, tRNA; extract 1 h at 30 °C; protein in an extract; label: biotin
RPL26 (Homo sapiens) = RPL26 (Homo sapiens) (UniProt P61254); test: pull-down; details: 3' biotin; pull-down: RNA on streptavidin beads blocked in 10 mM Tris-HCl pH 7.5, 100 mM KCl, 0.1 mM EDTA, 1 mM DTT, 0.01% Triton X-100, BSA, tRNA; extract 1 h at 30 °C; protein in an extract; label: biotin
[6] = target: Nucleolin (native) (Homo sapiens) (UniProt P19338); test: pull-down; details: 3' biotin; pull-down: RNA on streptavidin beads blocked in 10 mM Tris-HCl pH 7.5, 100 mM KCl, 0.1 mM EDTA, 1 mM DTT, 0.01% Triton X-100, BSA, tRNA; extract 1 h at 30 °C; protein in an extract; label: biotin

Measured: binding result

AGCCGUAGACUGAGCGAAGACCGAGCUUGU [ARPC2 mut]
binds: hnRNPA3 (Homo sapiens) | Actin (Homo sapiens)
binds more weakly: EFHD2 (Homo sapiens) | SRSF1 (Homo sapiens)
no binding: all other assays above
